Residue numbers refer to the chain shown, from its start. No constants are given. Whether binding was seen depends on the method and setting. Binding seen in cells or lysates may run through a third protein. Some binding calls cover weakened binding; strength is not graded here.
Tests used:
Experiment in all cases: pull-down; about 14 pmol purified GST-tagged bait on glutathione-Sepharose 4B beads, incubated with mouse kidney lysate (25 mM Tris-HCl pH 7.4, 150 mM NaCl, 5 mM EDTA, 1% Triton X-100); western blot with anti-B1; only the target purified
[1] = target: T1, E938A mutant of the TLDc domain of Ncoa7 (775–943) (mouse) (UniProt Q6DFV7)
T1 sequence: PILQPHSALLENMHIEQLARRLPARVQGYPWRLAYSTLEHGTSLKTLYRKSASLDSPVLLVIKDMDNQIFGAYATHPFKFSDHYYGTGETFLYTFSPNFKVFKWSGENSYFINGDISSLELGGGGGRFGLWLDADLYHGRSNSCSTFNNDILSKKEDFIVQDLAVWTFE

By UniProt entry, the sequences of proteins in these tests, tags left out.
UniProt Q91YH6: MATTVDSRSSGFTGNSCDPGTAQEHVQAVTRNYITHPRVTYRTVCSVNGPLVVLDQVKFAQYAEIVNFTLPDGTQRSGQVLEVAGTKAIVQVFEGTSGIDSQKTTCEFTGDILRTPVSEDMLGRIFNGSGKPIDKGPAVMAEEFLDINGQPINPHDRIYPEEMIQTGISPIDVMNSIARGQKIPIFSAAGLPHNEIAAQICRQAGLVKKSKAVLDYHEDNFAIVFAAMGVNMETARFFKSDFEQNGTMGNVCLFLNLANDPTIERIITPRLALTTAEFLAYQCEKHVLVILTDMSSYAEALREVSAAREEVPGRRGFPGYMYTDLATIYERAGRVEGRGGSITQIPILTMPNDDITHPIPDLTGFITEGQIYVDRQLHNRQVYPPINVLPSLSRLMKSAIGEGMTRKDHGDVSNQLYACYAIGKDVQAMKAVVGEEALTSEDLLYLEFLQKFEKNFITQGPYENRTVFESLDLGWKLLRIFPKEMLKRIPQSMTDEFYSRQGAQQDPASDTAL

[2] = target: T2, Oxr1 TLDc domain (698–866) (mouse) (UniProt Q4KMM3)
T2 sequence: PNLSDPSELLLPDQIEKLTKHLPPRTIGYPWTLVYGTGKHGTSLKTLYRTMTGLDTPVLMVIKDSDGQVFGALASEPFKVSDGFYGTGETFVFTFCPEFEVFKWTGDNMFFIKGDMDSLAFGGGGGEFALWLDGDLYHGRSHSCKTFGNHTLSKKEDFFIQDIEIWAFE

[3] = target: T3, Ncoa7 TLDc domain (775–943) (mouse) (UniProt Q6DFV7)
T3 sequence: T1 sequence with A164E

- binding [1]: binds
- binding [2]: binds
- binding [3]: binds
Substance: B1 subunit of V-ATPase (from UniProt Q91YH6 1-513)

Source: article PMC8608904
